{"sequences": {"note": "Sequences of proteins named here, by UniProt entry; tags and fusion partners are left off. Residues count along the entry.", "UniProt P02545, residues 385-646": "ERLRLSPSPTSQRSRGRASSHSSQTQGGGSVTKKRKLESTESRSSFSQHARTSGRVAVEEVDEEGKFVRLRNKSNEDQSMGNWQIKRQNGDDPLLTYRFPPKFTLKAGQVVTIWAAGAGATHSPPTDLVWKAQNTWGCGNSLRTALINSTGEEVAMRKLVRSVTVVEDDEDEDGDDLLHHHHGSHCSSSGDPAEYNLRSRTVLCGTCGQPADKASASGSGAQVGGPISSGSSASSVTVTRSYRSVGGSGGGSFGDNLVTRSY"}, "source": "paper PMC10626543", "about": "“Native lamin A/C proteomes and novel partners from heart and skeletal muscle in a mouse chronic inflammation model of human frailty” (Frontiers in Cell and Developmental Biology, 2023)", "assay_in_all_cases": "peptide or protein array; synthetic 20-mer peptides (7-residue offset) on cellulose; probed 3 h at room temperature with 190 nM His-tagged lamin A tail in casein blocking solution (TBS-T, sucrose, pH 7.0); bound lamin detected with anti-lamin A/C clone 14 and AP-conjugated secondary antibody; two experiments, each with an antibodies-only control; both purified", "key": {"[1]": {"target": "T1, Csrp3 peptide s10 (human)", "T1 sequence (peptide)": "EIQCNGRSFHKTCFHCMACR"}, "[2]": {"target": "T2, Csrp3 peptide s11 (human)", "T2 sequence (peptide)": "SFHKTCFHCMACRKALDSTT"}, "[3]": {"target": "T3, Csrp3 peptide s7 (aa 1–20) (human)", "T3 sequence (peptide)": "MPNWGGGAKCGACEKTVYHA"}, "Csrp3 peptide s9 (human)": {"target": "T4, Csrp3 peptide s9 (human)", "T4 sequence (peptide)": "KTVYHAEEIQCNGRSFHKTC"}, "Csrp3 peptide t5 (human)": {"target": "T5, Csrp3 peptide t5 (human)", "T5 sequence (peptide)": "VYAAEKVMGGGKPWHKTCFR"}, "Csrp3 peptide t6 (human)": {"target": "T6, Csrp3 peptide t6 (human)", "T6 sequence (peptide)": "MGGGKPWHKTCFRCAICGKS"}, "[4]": {"target": "T7, emerin peptide z10 (aa 183–202) (human)", "T7 sequence (peptide)": "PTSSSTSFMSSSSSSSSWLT"}, "[5]": {"target": "T8, lamin C-specific peptide y3 (human)", "T8 sequence (peptide)": "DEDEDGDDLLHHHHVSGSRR"}}, "note": "No constants are given. Whether binding was seen depends on the method and setting. Some entries that bind do so weakly or less than the wild type.", "data": [{"substance": "recombinant lamin A tail (residues 385–646 of human mature lamin A) (from UniProt P02545 385-646) (domain or fragment)", "values": [{"measurement": "binding", "setting": "[1]", "result": "binds weakly"}, {"measurement": "binding", "setting": "[2]", "result": "binds weakly"}, {"measurement": "binding", "setting": "[3]", "result": "binds weakly"}, {"measurement": "binding", "setting": "Csrp3 peptide s9 (human)", "result": "binds weakly"}, {"measurement": "binding", "setting": "Csrp3 peptide t5 (human)", "result": "binds weakly"}, {"measurement": "binding", "setting": "Csrp3 peptide t6 (human)", "result": "binds weakly"}, {"measurement": "binding", "setting": "[4]", "result": "binds weakly"}, {"measurement": "binding", "setting": "[5]", "result": "no binding (tested: 190 nM)"}]}]}
